Binding signal data for 42 sequences are collected here from article PMC7819943, “Rice protein-binding microarrays: a tool to detect cis-acting elements near promoter regions in rice”.

By UniProt entry, the sequences of proteins in these tests, tags left out.
UniProt Q0JBA9, entry or part of it: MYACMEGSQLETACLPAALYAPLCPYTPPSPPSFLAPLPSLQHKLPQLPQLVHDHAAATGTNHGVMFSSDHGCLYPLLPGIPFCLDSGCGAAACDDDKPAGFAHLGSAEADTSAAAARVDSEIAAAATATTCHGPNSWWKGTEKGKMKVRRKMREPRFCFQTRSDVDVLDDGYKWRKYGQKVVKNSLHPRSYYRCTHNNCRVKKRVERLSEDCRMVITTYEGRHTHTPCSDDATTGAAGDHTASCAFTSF

This is one part of the list.

This test addresses OsWRKY34 (Oryza sativa, UniProt Q0JBA9 1-250). The experiment in a line: protein-binding microarray (RPBM); PBS, 2% BSA, 51.3 ng/ul salmon testes DNA, 50 uM zinc acetate, 200 nM TF, 25 C, 1 h; high values mean tight binding. The settings on record: protein: recombinant; tags: N-terminal polyhistidine and DsRed monomer fusion (pET32a); label: CyDye5-dUTP incorporated in the synthesized complementary strand; 3' TTTTT single-stranded linker to array surface; dsDNA, one strand shown. Summed up:
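Using Ni–NTA, transcription factors fused N-terminally to polyhistidine and DsRed were purified after expression in E. coli BL21-CodonPlus. These were incubated at 200 nM with a blocked, double-stranded custom Agilent array for 1 h at 25 °C in a buffer containing 50 µM zinc acetate, and the array was washed. The binding signal is per-feature fluorescence intensity (arbitrary units) on an Axon 4000B scanner.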
Regarding “CTTTTATTGACCATATGCTCTCTTTTATCAACCTTTTTTCCGGAGTCACCTAGTGCAG”, the binding signal was 11700 fluorescence intensity (a.u.). For the sequence “TCGTTAATATTTATATTTCTCGATGCCCATGTAGCCAATCCGGAGTCACCTAGTGCAG”, the binding signal was 8560 fluorescence intensity (a.u.). For “TGTTATCTACTCCCTCCGGTTCCATATTAATTGACGTTTTCGGAGTCACCTAGTGCAG”, the binding signal is 8180 fluorescence intensity (a.u.).

“CCGCCGCACCACGCCCTACGACACCAACCAAACCCTCCTCCGGAGTCACCTAGTGCAG”: the binding signal was 8040 fluorescence intensity (a.u.). The value for “TTTTCATTTTCTAGTACTAGCTACACACCATTAACTTTTACGGAGTCACCTAGTGCAG” was 8160 fluorescence intensity (a.u.). Consider “TCTAATGCCACTTAAGCGCCACGTCAACGCTACGTAGGACCGGAGTCACCTAGTGCAG”, for which the binding signal was 8230 fluorescence intensity (a.u.).

In the case of “CCTTCCCCGCCGCATTTCTCGCACCCCACCCCATCCCCTTCGGAGTCACCTAGTGCAG”, the binding signal was 10000 fluorescence intensity (a.u.).

As to “GCACCTCGGACGCACAAACCCGCGCACATTTTCGCCCTAACGGAGTCACCTAGTGCAG”, the binding signal was 8120 fluorescence intensity (a.u.).

“GTTCTCGACCCGGAATAAATCCCGGTCTCTTGTTATACCTCGGAGTCACCTAGTGCAG”: the binding signal was 8410 fluorescence intensity (a.u.). Take “GCTTGTGTTTTTATTGTCTCTGGCACTTCACATATCTATACGGAGTCACCTAGTGCAG”: the binding signal was 13300 fluorescence intensity (a.u.). As for “TGTCATAACGTGGAAGCTTCTCCTTCGTCTTCCATCTCACCGGAGTCACCTAGTGCAG”, the figure is 10400 fluorescence intensity (a.u.); as for “TATTGTTTGTGGTTCCTGGATGATACATGTATCCAGCACTCGGAGTCACCTAGTGCAG”, 9920 fluorescence intensity (a.u.); as for “TTGAGTTTTTTTTTTATAATTTGTGGTCATTCGTCTTATTCGGAGTCACCTAGTGCAG”, 9010 fluorescence intensity (a.u.). The value for “CCCCATTTCTTTCGCATCGTCGTCTCGCCTTGCCCCGTCCCGGAGTCACCTAGTGCAG” was 8140 fluorescence intensity (a.u.); that for “ATCATATTACTGAAATGGAGACTTCTTTAGGCGTTGACTTCGGAGTCACCTAGTGCAG” was 11100 fluorescence intensity (a.u.).

Consider “CATGATAGATCAATCTCTTTCTTTTGTTATCCAGCAGTACCGGAGTCACCTAGTGCAG”, for which the binding signal is 10400 fluorescence intensity (a.u.).

For “AAATACTTTGTGACTTTTGTTTGTGTCCAGTTTTTACTCCCGGAGTCACCTAGTGCAG”, the binding signal is 8810 fluorescence intensity (a.u.).

As for “GCGGCGCGGTGCGCTCGGGTGGGGCCGGTCGACGTCTGCACGGAGTCACCTAGTGCAG”, the binding signal is 8120 fluorescence intensity (a.u.).

Consider “CCTTTCCCAACTAACTTTCCTTGTTTTCCACAGACATGTTCGGAGTCACCTAGTGCAG”, for which the binding signal was 9640 fluorescence intensity (a.u.). “TGAAATTCTGACCTCACTTCATGCGGCGGGAGGGCGGCTGCGGAGTCACCTAGTGCAG”: the binding signal is 9910 fluorescence intensity (a.u.). The value for “AGGCTTGTCCCCAGTTTGCTTCTTTTTTTTTGTCCAAAGACGGAGTCACCTAGTGCAG” was 8910 fluorescence intensity (a.u.).

Consider “GCCTCCACCGCTGTGCTACTGCATGTTCTTTTTACATTCGCGGAGTCACCTAGTGCAG”, for which the binding signal is 11000 fluorescence intensity (a.u.).

Regarding “GCCTCATCTTTGCGCACGCGTGCCTCGGCGTCGCACTGGCCGGAGTCACCTAGTGCAG”, the binding signal is 8260 fluorescence intensity (a.u.). The value for “CACAGCAGACGCATTTGACAGACACACGTAATCTCAACCACGGAGTCACCTAGTGCAG” was 10300 fluorescence intensity (a.u.); that for “CTCGCCGCGCCTCCACTCCTCACACCACGCTCCTCCTGACCGGAGTCACCTAGTGCAG” was 9560 fluorescence intensity (a.u.).

With “TGAACAGACAGTCAGATTTGCAATATATTCAACCATGCCACGGAGTCACCTAGTGCAG”, the binding signal is 8760 fluorescence intensity (a.u.). The value for “GTCATCCGCATCGCCTCGCGCCTCCGCCGCCGTCGCCGTCCGGAGTCACCTAGTGCAG” was 8500 fluorescence intensity (a.u.); that for “TTTCATACAGAAAGTGTGTTGGTCTGTGCTAATCTTTTCCCGGAGTCACCTAGTGCAG” was 8020 fluorescence intensity (a.u.); that for “GCAACCACCACCTCCTCATCCTCCACTGTTCAAGCCAACCCGGAGTCACCTAGTGCAG” was 8100 fluorescence intensity (a.u.).

As for “TGTTTTTGTTTTGTTTGTTCTTATCTAATTGTTGTCAGAACGGAGTCACCTAGTGCAG”, the binding signal was 9120 fluorescence intensity (a.u.). The value for “AACTTTTACTGCATCTCAGTTTCTGTAAATCTGTAATTCTCGGAGTCACCTAGTGCAG” was 8900 fluorescence intensity (a.u.).

As for “CCCGCACCGCAACACGCACACCCACGCGCACGCACAAACCCGGAGTCACCTAGTGCAG”, the binding signal is 8060 fluorescence intensity (a.u.). As for “ATATTTTTTTTTAATATATTGACTTAATTGTTTTGCGCGTCGGAGTCACCTAGTGCAG”, the figure is 9100 fluorescence intensity (a.u.). Take “TTGAAACAAGCAACCACATGACATCTTTGACTAATCTGTTCGGAGTCACCTAGTGCAG”: the binding signal is 8530 fluorescence intensity (a.u.). The value for “TCTCTCGCCTGTCCTCCTCTACCACCGGCGTGTTGTCAACCGGAGTCACCTAGTGCAG” was 8580 fluorescence intensity (a.u.); that for “ACTACGTTCCCAATCACGAGCCCCGTTCCGGATTTCGCTCCGGAGTCACCTAGTGCAG” was 8440 fluorescence intensity (a.u.); that for “TTTGGTTCTCCTCTCTCTCTCTCTCTCCCTTTTGACATTTCGGAGTCACCTAGTGCAG” was 8080 fluorescence intensity (a.u.). “CCACGACTCTGCGTTTGCATGTTTGTGTTGTATTTACTTCCGGAGTCACCTAGTGCAG”: the binding signal is 9200 fluorescence intensity (a.u.). The value for “GCTTTGACTAAATTATCATAAAACTATGTATCACACAACTCGGAGTCACCTAGTGCAG” was 8390 fluorescence intensity (a.u.); that for “CTCCATTTTTTTTTTCTTCTCTTCTTCTTACGAACTCGAACGGAGTCACCTAGTGCAG” was 8410 fluorescence intensity (a.u.); that for “GTTCGTGGGAGGAAGACTAGTTTTAGGGCGGGATTATAAACGGAGTCACCTAGTGCAG” was 10300 fluorescence intensity (a.u.). “ACAATCCTTCACAAAACCGACTCCAAAACCTCACCCACGTCGGAGTCACCTAGTGCAG”: the binding signal was 10400 fluorescence intensity (a.u.).
